These are yes or no findings as the source states them, for the method shown. For some assays here: Binding seen in cells or lysates may run through a third protein. Some results given as binding are weak or reduced against the parent protein; the word gives no strength. Values belong to the molecule of their own block, whether it stands above or below them.
Legend:
[1] = biological target: His-tagged GlnZ (A. brasilense) (UniProt P70731); assay: pull-down; 20 μg purified His-GlnZ immobilised on magnetic Ni2+ beads (MagneHis), mixed with 20 μg of partially purified or purified protein; 50 mM Tris-HCl pH 8, 0.1 M NaCl, 10% glycerol, 20 mM imidazole, 5 mM MgCl2, with 1 mM ADP, 1 mM ATP or 1 mM ATP + 1.5 mM 2-OG; SDS-PAGE, Coomassie; 2-OG reduced copurification; both purified
[2] = biological target: His-tagged GlnZ (A. brasilense) (UniProt P70731); assay: as above; remark: listed apart in the source
[3] = biological target: His-tagged GlnZ (A. brasilense) (UniProt P70731); assay: pull-down; 20 μg purified His-GlnZ immobilised on magnetic Ni2+ beads (MagneHis), mixed with E. coli cell extract overexpressing the recombinant protein (100 μl in Fig. S1); 50 mM Tris-HCl pH 8, 0.1 M NaCl, 10% glycerol, 20 mM imidazole, 5 mM MgCl2, with 1 mM ADP, 1 mM ATP or 1 mM ATP + 1.5 mM 2-OG; SDS-PAGE, Coomassie; 2-OG reduced copurification; only the target purified

By UniProt entry, the sequences of proteins in these tests, tags left out.
UniProt P70731: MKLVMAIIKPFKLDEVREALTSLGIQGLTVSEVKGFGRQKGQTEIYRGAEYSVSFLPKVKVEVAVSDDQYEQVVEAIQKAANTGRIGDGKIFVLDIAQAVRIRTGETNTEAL
UniProt A0A0N7I832: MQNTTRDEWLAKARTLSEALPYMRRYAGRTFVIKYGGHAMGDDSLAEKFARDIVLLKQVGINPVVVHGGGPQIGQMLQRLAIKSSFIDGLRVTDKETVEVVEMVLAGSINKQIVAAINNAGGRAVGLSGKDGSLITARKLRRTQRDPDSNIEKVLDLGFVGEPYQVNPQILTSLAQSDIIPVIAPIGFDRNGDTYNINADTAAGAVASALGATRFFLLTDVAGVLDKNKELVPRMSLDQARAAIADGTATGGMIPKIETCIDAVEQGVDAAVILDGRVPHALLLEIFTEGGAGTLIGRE

binding [1]: binds
Molecule: NAGK (G8AI64), recombinant (from UniProt A0A0N7I832 1-299) (enzyme)

binding [2]: binds
B1: ATase, glutamine synthetase adenylyltransferase (A7Y9V0), recombinant (enzyme, UniProt A0A0P0F2U7 1-1005)
chain: MTTTLPKPFDTGLAERGLERWRAEAANAADNDGNNDGDSTGDALRAWAEAYADSAEGRALIDAVCGNSPYLGQILTRELPFVREMVTRGYDDAFATLLRRLEADCAEERNIDRLMTALRIAKRRAALLIAIADITGAWELEAVTGALSDIAETSVRMAANHLLRRAAEAGTLTLPEPQRPWVGSGLIVLGMGKLGARELNYSSDIDLIVLYDDAVVQTPQPDNLARTFIRIARDLVRIMDERTKDGYVFRTDLRLRPDPGATPLAVSVSAAEIYYGSVGQNWERAAMIKARPIAGDPEAGAHFLRFLEPFVWRRHLDFAAIQDIHSIKRQINAHKGHREVTVNGHDIKVGRGGIREIEFFAQTQQLIFGGRDIRVRIAPTLLANKALCAVGRVPEAAVEELEEAYRFLRRVEHRIQMTDDRQTHQIPADDEGVAHLATFLGYAQVEDFRADLLAQLGRVEDRYAELFEEAPSLSGPGNLVFTGTDDDPGTVKTLAGMGYRDPSRVIAVVSTWHRGRYRSTRSGRARELLTELVPAMLNELAKTPAPDDALVKFDSFLERLPAGVGLFSLFIANPWLLALVAEIMGTAPQLAETLSRNPSLLDAVLSPDFFDPLPDAAGLTPEYQRFIAGAHNFEDVLTLSRRWTNDQRFRAGAHILRGITDGDHCGPFLADLADVVVPELAARVEEEFATRHGRIPGGAWVVVAMGKLGSRQLTITSDIDLIVVYEVPPGTRQSDGTKPLAPNEYYIKLTQRLTNAITAPMADGRLYEVDMRLRPSGNAGPLATALDAFTAYQAKDAWTWEHMALTRARVIGGDPPLGHKVESAIRGVLTGPRDPAKVLRDVADMRRRIDKEFGTANPWNVKYARGGLIDIEFTAQYLQLRHGHAHPEILSIATSRALLNAAAAGLLAPEVAEELAATLKLWRRVQGFLRLTTDGVLDPRQVSPTLREGLSRAAFPDEEPAVDFAALDSRIRDIAARAHRHFVALVEEPASRLPPPETNEEAKLP

binding [2]: binds
B2: TrkA (G8AQ29), recombinant (protein, UniProt A0A0P0EHA2 1-458)
chain: MKVIVCGAGQVGSNIARYLASEGNNVTVIDHSPELIQRISDTLDVQAMVGHASHPDVLEAAGAGETDMIIAVTQIDEINMVACEVAHALFKVPTKIARVRNQSYLKPIWADLFSRDHMPIDVIISPEIAVARAIARRLQVPGAFDMIPLADGKVRVVGVLCTETCPVLHTPLRQLTGLFPDLGLEVVAIIRNDRSFIPGGDDQMLPGDEVYFACDNRHLNRAMSAFGHEEVEARRIIILGGGNIGLCLAEELEAKYPHVTARIIEMNRSRAQYVAQRLSRTMVLHGDGLDPEILEEANVRATETVVAVTNDDEGNILSSLLAKRHGAKRAITLINKASYTSLVSPLGIDAVVSPRAITVSNILQHVRRGRIRAVHSLRDGFAEVIEAEALETSAVVNTPLREVKLPSGVIVGAIVRGDEVIVPRPATVIRPKDRVVILATAGQVKKVEKMFAVRLEFF

binding [2]: binds
B3: RPH, RNase PH (G8AGG4), recombinant (enzyme, UniProt A0A4D8QJU4 1-239)
chain: MRPSGRAHDQLRTISLEPHFSKHAEGSCLVRFGDTHVLCTASVDEGVPRFLKNTGLGWVTAEYGMLPRSTHSRTDREAAKGKQSGRTQEIQRLIGRALRAVTDRAAMGEKQIKIDCDVIQADGGTRTAAITGSFVALHLAFQHLMQIGALKTMPLTDHVAAVSCGIYKNTSVLDLDYAEDSTAQADANFVLTGQGGIVEVQGTAEERPFSEPQFMELLALARKGIDELVALQKAAIAVK

binding [3]: binds
B4: Rho (G8AG60), recombinant (protein, UniProt A0A560CHF0 1-418)
chain: MHLQELKCKSPAELLAFAEELQIENASTLRKQDMMFAILKQLAENDVPIYGDGVLEVLQDGFGFLRSPEANYLPGPDDIYVSPSQVRRFSLRTGDTVEGQIRAPKDGERYFALLKVNTINFDAPDKVRHRINFDNLTPLYPEERLRMEVDDPTKKNYTGRIIDLVAPLGKGQRGLIVAPPRTGKTVMLQNIAHSIATNHPEAYLIVLLIDERPEEVTDMARSVRGEVISSTFDEPATRHVQVAEMVIEKAKRLVEHKRDVVILLDSITRLARAYNTVVPSSGKVLTGGVDANALQRPKRFFGAARNIEEGGSLTIIATALIDTGSRMDEVIFEEFKGTGNSEIVLDRKLSDKRTFPAIDISKSGTRKEELLVDKGTISKMWILRRILMPMGVTDAVDFLVDKLKHTKSNSEFFESMNQ

From publication PMC7646526
